# Measurements taken from patent publication US7094405B1, “Peptides which elicit a high neutralizing antibody titer, cytotoxic T lymphocyte response and T helper cell response in a broad range of MHC type recipients” (priority 1986, dated 2006).
# Several values for one entry are separate records, joined by “and”; a condition that tells them apart may be missing. Identical values can stand only once. Entries after “also recorded” stand apart in the source; their conditions may differ. Like-named read-outs stand apart in the source and are kept apart here. At least one peptide structure holds a part that was inferred or is arguable (an end, a ring closure or a residue).
# Legend:
# HIV-1 MN = test: Neutralization of HIV-1 MN by immune sera, quantitative infectivity microassay using CEM-SS cells; format: in vivo
# rgp120 = rgp120 (Human immunodeficiency virus type 1 group M subtype B, UniProt P03375); test: Competition ELISA binding curves with rgp120 as competitor; design: species or system HIV-1; settings: read-out: IC 50 gp120 (concentration producing 50% inhibition in a competitive ELISA, as an estimate of Kd); individual BALB/c mouse serum, 10^−3 dilution
# [1] = test system: viral gp 120 expressed on the surface of HIV-1 IIIB productively infected cells; test: Direct binding of immune sera by live cell immunofluorescence assay (IFA); format: in vivo; settings: for neutralizing sera (90%) that bound virus infected cells by IFA: in vivo
# HIV-1 IIIB = test: Neutralization of HIV-1 IIIB by immune sera, quantitative infectivity microassay using CEM-SS cells; format: in vivo; settings: for Neutralization IIIB 50% / Neutralization IIIB 90%: reciprocal dilution titer
# P18 = biological target: T1, P18 (Human immunodeficiency virus type 1 group M subtype B, UniProt P03375); test: Competition ELISA binding curves with p18 as competitor; design: species or system HIV-1 IIIB; settings: read-out: IC 50 p18 (concentration of peptide producing 50% inhibition in a competitive ELISA, as an estimate of Kd), 10^−3 dilution
# T1 construct: made in house; host or cells: chemical peptide synthesis
# [2] = individual B10.A(5R) mouse sera after a single boost with 10 nanomole cluster peptide-P18
# [3] = individual B10.BR mouse sera after a single boost with 10 nanomole cluster peptide-P18
# [4] = individual B10.BR mouse sera after primary immunization
# [5] = individual B10.HTT mouse sera after a single boost with 10 nanomole cluster peptide-P18
# [6] = individual BALB/c mouse sera after a single boost with 10 nanomole cluster peptide-P18
# [7] = individual BALB/c mouse sera after primary immunization
# [8] = B10.BR or B10.A (A^kE^k) mice, 31 days after single immunization with 20 nanomole peptide
# [9] = individual B10.A(5R) mouse sera after primary immunization
# [10] = individual B10.HTT mouse sera after primary immunization
smiles,measurement,setting,value
CC[C@H](C)[C@H](NC(=O)[C@H](C)NC(=O)[C@H](CCCNC(=N)N)NC(=O)[C@H](Cc1ccc(O)cc1)NC(=O)[C@H](C)NC(=O)CNC(=O)[C@H](CCC(N)=O)NC(=O)[C@@H](NC(=O)[C@@H](NC(=O)[C@H](CCC(=O)O)NC(=O)[C@@H](NC(=O)[C@@H](NC(=O)[C@H](CCCNC(=N)N)NC(=O)[C@H](CC(=O)O)NC(=O)[C@@H](NC(=O)CNC(=O)[C@H](CCC(=O)O)NC(=O)[C@H](C)NC(=O)[C@@H](NC(=O)[C@H](C)N)C(C)C)[C@@H](C)O)C(C)C)[C@@H](C)CC)C(C)C)C(C)C)C(=O)N[C@@H](CCCNC(=N)N)C(=O)N[C@@H](Cc1c[nH]cn1)C(=O)N[C@H](C(=O)N1CCC[C@H]1C(=O)N[C@@H](CCCNC(=N)N)C(=O)N[C@@H](CCCNC(=N)N)C(=O)N[C@H](C(=O)N[C@@H](CCCNC(=N)N)C(=O)N[C@@H](CCC(N)=O)C(=O)NCC(=O)N[C@@H](CC(C)C)C(=O)N[C@@H](CCC(=O)O)C(=O)N[C@@H](CCCNC(=N)N)C(=O)N[C@@H](CCCNC(=N)N)C(=O)N[C@H](C(=O)N[C@@H](CCC(N)=O)C(=O)N[C@@H](CCCNC(=N)N)C(=O)NCC(=O)N1CCC[C@H]1C(=O)NCC(=O)N[C@@H](CCCNC(=N)N)C(=O)N[C@@H](C)C(=O)N[C@@H](Cc1ccccc1)C(=O)N[C@H](C(=O)N[C@H](C(=O)N[C@H](C(=O)NCC(=O)N[C@@H](CCCCN)C(=O)O)[C@@H](C)CC)[C@@H](C)O)C(C)C)[C@@H](C)CC)[C@@H](C)CC)[C@@H](C)CC [PCLUS 6-18],cross-neutralization of the HIV-1 MN strain by boosted sera (in words),"HIV-1 MN; following a single boost, listed as PCLUS6-18 IIIB","in three of four strains boosted with PCLUS6-18 IIIB, the sera were also capable of neutralizing the HIV-1 MN strain, albeit at much lower titer; also recorded: none of these sera showed cross-neutralizing activity against the MN strain"
same,"Neutralization MN 50% (cross neutralization, reciprocal dilution titer)",HIV-1 MN; [2],>512 and 64 and 256
same,"Neutralization MN 90% (cross neutralization, reciprocal dilution titer)",HIV-1 MN; [2],"— (− indicates negative at the lowest dilution tested, 1:64)"
same,"Neutralization MN 50% (cross neutralization, reciprocal dilution titer)",HIV-1 MN; [3],">512 (2×) and — (− indicates negative at the lowest dilution tested, 1:64)"
same,"Neutralization MN 90% (cross neutralization, reciprocal dilution titer)",HIV-1 MN; [3],"— (− indicates negative at the lowest dilution tested, 1:64)"
same,Neutralization MN 90%,HIV-1 MN; [4],Negative
same,"Neutralization MN 50% (cross neutralization, reciprocal dilution titer)",HIV-1 MN; [5],512 and >512 (2×)
same,"Neutralization MN 50% (cross neutralization, reciprocal dilution titer)",HIV-1 MN; [6],"— (− indicates negative at the lowest dilution tested, 1:64)"
same,"Neutralization MN 90% (cross neutralization, reciprocal dilution titer)",HIV-1 MN; [6],"— (− indicates negative at the lowest dilution tested, 1:64)"
same,Neutralization MN 90%,HIV-1 MN; [7],Negative
same,IC50,rgp120,0.388 nM
same,neutralizing sera (90%) that bound virus infected cells by IFA,[1]; listed as PCLUS 6-peptide 18,3 of 5
same,neutralizing sera (90%) that bound virus infected cells by IFA,[1]; listed as cluster peptide 6-18,Three of five
same,IIIB/119 Binding (IFA),"[1]; individual BALB/c mouse sera after primary immunization, serum dilution titer",Negative
same,No. of mice with positive neutralizing titers/total tested,"HIV-1 IIIB; B10.A(5R) (A^bE^b) mice, 31 days after single immunization with 20 nanomole peptide",(1/5); also recorded: (3/5)
same,mice with neutralizing titers greater than 64,"HIV-1 IIIB; B10.BR mice, panels 3 and 4 of FIG. 2, single immunization",four of ten
same,Neutralization: Reciprocal Geometric Mean HIV IIIB Neutralizing Antibody Titer (serum dilution inhibiting foci by greater than 90%),HIV-1 IIIB; [8],32.0 and 19.0
same,No. of mice with positive neutralizing titers/total tested,HIV-1 IIIB; [8],(3/5); also recorded: (4/5)
same,No. of mice with positive neutralizing titers/total tested,"HIV-1 IIIB; B10.HTT (A^aE^a) mice, 31 days after single immunization with 20 nanomole peptide",(4/5); also recorded: (0/5)
same,mice with 90% neutralizing titers greater than 64,"HIV-1 IIIB; BALB/c mice of the first panel of FIG. 2, single immunization",three of five
same,No. of mice with positive neutralizing titers/total tested,"HIV-1 IIIB; BALB/c or B10.D2 (A^dE^d) mice, 31 days after single immunization with 20 nanomole peptide",(4/5)
same,animals demonstrating 50% neutralization of live virus at a dilution of 1:64,"HIV-1 IIIB; all animals, single immunization",22/40
same,animals showing a peptide-18 specific response by ELISA in which neutralizing antibody was elicited,HIV-1 IIIB; in three of the strains tested,80-90%
same,duration of memory from the primary immunization,HIV-1 IIIB; in vivo,at least 11 months
same,Neutralization IIIB 50% (reciprocal dilution neutralization titer),HIV-1 IIIB; [2],>4096 and 512 and 2048 and 1024
same,Neutralization IIIB 90% (reciprocal dilution neutralization titer),HIV-1 IIIB; [2],2048 and 512 and 256
same,Neutralization IIIB 50%,HIV-1 IIIB; [9],16 (3×) and >64 (2×) and 32 (2×)
same,Neutralization IIIB 90%,HIV-1 IIIB; [9],8 (2×) and >64 and 32
same,Neutralization IIIB 50% (reciprocal dilution neutralization titer),HIV-1 IIIB; [3],"16,384 and >32,768 and 2048 (3×) and 512 and >4096"
same,Neutralization IIIB 90% (reciprocal dilution neutralization titer),HIV-1 IIIB; [3],4096 (2×) and 1024 (2×) and 256 (2×)
same,Neutralization IIIB 50%,HIV-1 IIIB; [4],>64 (6×) and 64 and 32 and 16
same,Neutralization IIIB 90%,HIV-1 IIIB; [4],16 (3×) and 8 and >64 (2×) and 32
same,Neutralization IIIB 50% (reciprocal dilution neutralization titer),HIV-1 IIIB; [5],">4096 (3×) and >32,768"
same,Neutralization IIIB 90% (reciprocal dilution neutralization titer),HIV-1 IIIB; [5],"1024 and 2048 and 512 and 16,384"
same,Neutralization IIIB 50%,HIV-1 IIIB; [10],>64 (3×) and 64 and 32 (2×)
same,Neutralization IIIB 90%,HIV-1 IIIB; [10],8 (2×) and 16 (2×)
same,Neutralization IIIB 50% (reciprocal dilution neutralization titer),HIV-1 IIIB; [6],">32,768 (4×) and 512"
same,Neutralization IIIB 90% (reciprocal dilution neutralization titer),HIV-1 IIIB; [6],"4068 and 64 and 16,384 (3×) and 32"
same,Neutralization IIIB 50%,HIV-1 IIIB; [7],>64 (7×) and 32 (2×)
same,Neutralization IIIB 90%,HIV-1 IIIB; [7],32 (2×) and 8 (2×) and 16 (2×) and >64 (3×)
same,IC50,P18; individual B10.BR mouse serum,744 nM
same,IC50,P18; individual BALB/c mouse serum,677 nM
